Measurements reported in PubChem BioAssay AID1224826 (NIAID, 2016)
Assay: 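Knock-downs that raise or lower Tnf reporter signal after endotoxin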 (primary screen). Cell system: RAW264.7 G9 macrophages from mouse bearing reporters for p65 (GFP) and the Tnf promoter (mCherry). Reagent: siRNA pool against mouse genes, 100 nM. Time to read-out: 16 h of LPS stimulation, after 2 days of siRNA transfection. Conditions: bacterial lipopolysaccharide (Salmonella minnesota R595), 10 ng/ml. Detection: 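Imaged Tnf reporter mCherry in nuclei, minus background, normalised per plate to the median and expressed as robust z-scores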. Reading the numbers: Tnf reporter robust z-score: higher = stronger Tnf promoter reporter signal after LPS. Hit rule: 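a well counts as active at a score of -1.3 or below (Tlr4 knock-down control median) or above 3 (raised signal); controls and wells holding fewer than 50 cells are excluded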. Calls: active = Tnf reporter clearly lowered or raised; inactive = no clear change in Tnf reporter.
In all, the deposit lists about 17,000 reagents; below is a random part of them. In the full data, about 1,110 (6.6%) were called active. 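Active means lowered or raised reporter signal; replicate intensities are raw and not normalised per plate.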 A number with no mark means an inactive call. Reagents against one gene are numbered here. Not all columns of the deposit are shown.

target | pool no. | Tnf reporter robust z-score | fewer than 50 cells in well
Tesc | 1 | 2.93 | enough cells in well
Slc2a12 | 1 | – | fewer than 50 cells per well; well left out of calls
Cldn19 | 1 | -0.95 | enough cells in well
Tusc2 | 1 | – | fewer than 50 cells per well; well left out of calls
Ankrd9 | 1 | -0.94 | enough cells in well
Fmnl1 | 1 | -0.02 | enough cells in well
Atp6v0a4 | 1 | 0 | enough cells in well
S1pr1 | 1 | -0.69 | enough cells in well
Ppp4r1 | 1 | -0.9 | enough cells in well
Rhpn1 | 1 | 1.79 | enough cells in well
Ubn1 | 1 | -0.07 | enough cells in well
A930025A13Rik | 1 | -0.59 | enough cells in well
Noc4l | 1 | -0.78 | enough cells in well
Cntln | 1 | 2.61 | enough cells in well
Cntln | 2 | -0.35 | enough cells in well
Itm2b | 1 | 0.31 | enough cells in well
Eif2b4 | 1 | -1.23 | enough cells in well
Thg1l | 1 | 0.34 | enough cells in well
Hectd2 | 1 | -0.82 | enough cells in well

Records above whose target name begins with T or t:
target | pool no. | Tnf reporter robust z-score | fewer than 50 cells in well
Tesc | 1 | 2.93 | enough cells in well
Tusc2 | 1 | – | fewer than 50 cells per well; well left out of calls
Thg1l | 1 | 0.34 | enough cells in well

More reagents:
target | pool no. | Tnf reporter robust z-score | fewer than 50 cells in well
Gramd1b | 1 | – | fewer than 50 cells per well; well left out of calls
Dusp2 | 1 | 1.99 | enough cells in well
Gnpat | 1 | -0.77 | enough cells in well
Calu | 1 | 1.53 | enough cells in well
Tmem62 | 1 | -0.73 | enough cells in well
Sftpa1 | 1 | -0.53 | enough cells in well
Dlgap4 | 1 | 3.36 (active) | enough cells in well
Pgrmc1 | 1 | 0.23 | enough cells in well
Arl13b | 1 | 1.29 | enough cells in well
Tcaf3 | 1 | 0.57 | enough cells in well
Hspg2 | 1 | -0.17 | enough cells in well
Rnf111 | 1 | 0.07 | enough cells in well
Rps13 | 1 | – | fewer than 50 cells per well; well left out of calls
Nefl | 1 | -0.28 | enough cells in well
Gprc5a | 1 | 0.31 | enough cells in well
Cebpz | 1 | -0.21 | enough cells in well
Dio3 | 1 | -0.56 | enough cells in well
Allc | 1 | -0.11 | enough cells in well
Man2c1 | 1 | 0.21 | enough cells in well
Rab2b | 1 | -1.16 | enough cells in well
Adgra1 | 1 | 0.29 | enough cells in well
